Data as given in US20180135070A1 (BOARD OF TRUSTEES OF MICHIGAN STATE UNIVERSITY, published 2018).
Substitutions are numbered along the chain they refer to. These are yes or no findings as the source states them, for the method shown. For some assays here: In cells and extracts the contact can be indirect. Some results given as binding are weak or reduced against the parent protein; the word gives no strength. Tags and fused reporters may be left off the sequences shown.

T1: MBP-JAZ9-8×His (recombinant, E. coli-expressed) (Arabidopsis) (UniProt Q8W4J8)
T1 sequence: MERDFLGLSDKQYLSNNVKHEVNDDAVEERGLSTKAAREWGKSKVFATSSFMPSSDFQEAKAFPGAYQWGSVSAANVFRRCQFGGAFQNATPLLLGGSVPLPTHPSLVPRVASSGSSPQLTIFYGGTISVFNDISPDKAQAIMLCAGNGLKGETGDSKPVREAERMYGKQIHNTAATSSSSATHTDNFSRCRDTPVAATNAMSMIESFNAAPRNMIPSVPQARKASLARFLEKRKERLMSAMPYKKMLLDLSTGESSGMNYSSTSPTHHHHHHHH

B1: COI1A384V-4×c-Myc (plant-expressed) (receptor, not shown: small tags and cut ends)
chain: MEDPDIKRCKLSCVATVDDVIEQVMTYITDPKDRDSASLVCRRWFKIDSETREHVTMALCYTATPDRLSRRFPNLRSLKLKGKPRAAMFNLIPENWGGYVTPWVTEISNNLRQLKSVHFRRMIVSDLDLDRLAKARADDLETLKLDKCSGFTTDGLLSIVTHCRKIKTLLMEESSFSEKDGKWLHELAQHNTSLEVLNFYMTEFAKISPKDLETIARNCRSLVSVKVGDFEILELVGFFKAAANLEEFCGGSLNEDIGMPEKYMNLVFPRKLCRLGLSYMGPNEMPILFPFAAQIRKLDLLYALLETEDHCTLIQKCPNLEVLETRNVIGDRGLEVLAQYCKQLKRLRIERGADEQGMEDEEGLVSQRGLIALAQGCQELEYMVVYVSDITNESLESIGTYLKNLCDFRLVLLDREERITDLPLDNGVRSLLIGCKKLRRFAFYLRQGGLTDLGLSYIGQYSPNVRWMLLGYVGESDEGLMEFSRGCPNLQKLEMRGCCFSERAIAAAVTKLPSLRYLWVQGYRASMTGQDLMQMARPYWNIELIPSRRVPEVNQQGEIREMEHPAHILAYYSLAGQRTDCPTTVRVLKEPI
notes: In protein extracts of transgenic Arabidopsis (coi1-30 background); C-terminal 4×c-Myc tag; also called pCOI1:COI1A384V-4×c-Myc
B2: COI1WT-4×c-Myc (plant-expressed) (receptor)
chain: B1 chain with V384A

Legend:
[1] = molecular target: T1, MBP-JAZ9-8×His (recombinant, E. coli-expressed) (Arabidopsis); assay: Ni-resin pull-down with MBP-JAZ9-8×His, JA-Ile series, anti-c-Myc immunoblot
[2] = molecular target: T1, MBP-JAZ9-8×His (recombinant, E. coli-expressed) (Arabidopsis); assay: Ni-resin pull-down with MBP-JAZ9-8×His, JA-Ile and COR series, anti-c-Myc immunoblot

| Binder | binding [1] | binding [2] |
| --- | --- | --- |
| B1 | binds |  |
| B2 |  | binds |
